Measured values: paper PMC7570852, “Ruthenium(II)/(III) DMSO-Based Complexes of 2-Aminophenyl Benzimidazole with In Vitro and In Vivo Anticancer Activity” (Molecules, 2020)

system: human breast cancer (MCF7) cells; experiment: MTT cell viability assay, MCF7; assay type: cell-based; details: in vitro
Protocol: The cytotoxic effect of the Hapbim ligand and its complexes (1) and (2) on human breast cancer (MCF7), human colorectal cancer (Caco2), and human normal liver (THLE-2) cell lines was evaluated by the MTT assay. The cells were cultured in a 96-well plate (1 × 10^4 cells/well, 100 μL/well) containing DMEM medium provided with 10% fetal bovine serum, and 1% penicillin/streptomycin. Then, the cells were incubated at 37 °C for 24 h in a CO2 incubator under 5% CO2, 95% air until reaching a confluence of 70–80%. A 20 μL volume of each compound at different concentrations (from 5 to 400 μM for the cancer cell and from 600 to 1000 μM for the normal cells) was added and the cells were re-incubated for a further 24 h. After the incubation period, the cells were incubated again with 5 mg/mL of MTT for 4 h and then the medium was replaced with 100 μL DMSO and vortexed for 20 min. Finally, the absorbance was recorded at 570 nm using the microplate reader. […] To calculate the cell inhibition percentage, the following equation was used:% Cell inhibition = 100 − % cell viability ((At − Ab)/(Ac − Ab)) × 100%)(4) where At is the absorbance value of tested compound; Ab is the absorbance value of blank; Ac is the absorbance value of the control.

Molecule | Therapeutic index: IC50 of THLE-2 cell/IC50 of MCF-7
CS(C)=O.Nc1ccccc1-c1nc2ccccc2[nH]1.O.[Cl][Ru]([Cl])[Cl] [(2), [Ru(III)Cl3(DMSO)(Hapbim)]·H2O] | 10.89
Nc1ccccc1-c1nc2ccccc2[nH]1 [Hapbim, 2-aminophenyl benzimidazole] | 18.5
[Ru(II)Cl2(DMSO)2(Hapbim)] [(1)] | 5.8
